Results on 37 targets are retold here after the supplement of paper PMC11006884.

Chains of the proteins cited; added tags and fusions are not shown. Lines headed by an entry give the natural chain unless they say otherwise; changes in a name come on top.
UniProt Q13542: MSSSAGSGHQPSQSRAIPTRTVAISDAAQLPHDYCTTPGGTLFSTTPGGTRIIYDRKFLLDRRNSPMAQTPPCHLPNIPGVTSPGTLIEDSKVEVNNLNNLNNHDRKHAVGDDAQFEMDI
UniProt Q14669: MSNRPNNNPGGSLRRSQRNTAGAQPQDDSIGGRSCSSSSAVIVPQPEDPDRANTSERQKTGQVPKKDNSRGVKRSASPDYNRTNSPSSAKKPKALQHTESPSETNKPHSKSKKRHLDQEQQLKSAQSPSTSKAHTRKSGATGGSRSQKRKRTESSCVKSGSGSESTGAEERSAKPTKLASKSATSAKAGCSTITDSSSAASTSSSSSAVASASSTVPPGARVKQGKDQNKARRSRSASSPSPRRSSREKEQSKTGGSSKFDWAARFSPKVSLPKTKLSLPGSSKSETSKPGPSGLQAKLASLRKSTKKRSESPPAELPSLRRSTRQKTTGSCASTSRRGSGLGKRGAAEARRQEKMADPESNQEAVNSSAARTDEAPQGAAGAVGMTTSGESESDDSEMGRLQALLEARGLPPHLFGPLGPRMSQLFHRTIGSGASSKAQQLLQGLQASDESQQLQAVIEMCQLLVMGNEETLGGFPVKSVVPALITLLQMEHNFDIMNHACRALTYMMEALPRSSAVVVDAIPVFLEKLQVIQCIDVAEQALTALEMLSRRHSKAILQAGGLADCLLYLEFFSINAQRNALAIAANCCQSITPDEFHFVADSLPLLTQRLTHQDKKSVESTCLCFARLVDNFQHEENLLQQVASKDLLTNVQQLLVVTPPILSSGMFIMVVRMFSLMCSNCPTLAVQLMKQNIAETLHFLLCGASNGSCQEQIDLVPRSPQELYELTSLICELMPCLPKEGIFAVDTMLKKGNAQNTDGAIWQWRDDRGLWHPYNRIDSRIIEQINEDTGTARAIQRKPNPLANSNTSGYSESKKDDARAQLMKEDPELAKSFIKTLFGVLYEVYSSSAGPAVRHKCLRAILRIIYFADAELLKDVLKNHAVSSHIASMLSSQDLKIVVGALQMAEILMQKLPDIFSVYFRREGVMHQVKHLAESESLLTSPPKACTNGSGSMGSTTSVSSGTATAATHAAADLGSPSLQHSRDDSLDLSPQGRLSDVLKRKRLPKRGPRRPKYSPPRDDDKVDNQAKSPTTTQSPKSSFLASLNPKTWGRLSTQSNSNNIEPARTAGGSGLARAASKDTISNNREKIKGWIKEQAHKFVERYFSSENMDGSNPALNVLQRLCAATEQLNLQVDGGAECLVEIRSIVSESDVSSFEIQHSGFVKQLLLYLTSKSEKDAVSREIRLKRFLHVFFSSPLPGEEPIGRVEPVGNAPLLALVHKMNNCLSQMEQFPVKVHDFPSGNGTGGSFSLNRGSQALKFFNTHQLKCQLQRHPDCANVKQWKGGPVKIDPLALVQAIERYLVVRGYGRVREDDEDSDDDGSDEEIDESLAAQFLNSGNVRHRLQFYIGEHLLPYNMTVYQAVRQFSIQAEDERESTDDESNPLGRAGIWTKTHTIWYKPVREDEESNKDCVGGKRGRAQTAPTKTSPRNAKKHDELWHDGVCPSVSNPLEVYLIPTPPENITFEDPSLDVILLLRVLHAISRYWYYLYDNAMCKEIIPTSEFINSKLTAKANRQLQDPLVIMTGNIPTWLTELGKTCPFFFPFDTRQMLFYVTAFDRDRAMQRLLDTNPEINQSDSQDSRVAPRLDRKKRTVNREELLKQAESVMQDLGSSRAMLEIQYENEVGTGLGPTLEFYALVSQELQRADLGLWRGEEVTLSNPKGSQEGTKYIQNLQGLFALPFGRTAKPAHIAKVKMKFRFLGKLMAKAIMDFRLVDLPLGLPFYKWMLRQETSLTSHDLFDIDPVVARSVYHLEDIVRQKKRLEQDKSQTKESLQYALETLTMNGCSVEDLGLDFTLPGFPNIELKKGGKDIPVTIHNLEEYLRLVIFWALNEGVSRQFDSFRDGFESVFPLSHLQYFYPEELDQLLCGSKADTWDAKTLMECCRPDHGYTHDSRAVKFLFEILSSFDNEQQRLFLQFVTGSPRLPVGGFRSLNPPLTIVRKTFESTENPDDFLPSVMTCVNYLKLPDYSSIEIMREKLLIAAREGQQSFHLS
UniProt Q15003, whole entry, looked up: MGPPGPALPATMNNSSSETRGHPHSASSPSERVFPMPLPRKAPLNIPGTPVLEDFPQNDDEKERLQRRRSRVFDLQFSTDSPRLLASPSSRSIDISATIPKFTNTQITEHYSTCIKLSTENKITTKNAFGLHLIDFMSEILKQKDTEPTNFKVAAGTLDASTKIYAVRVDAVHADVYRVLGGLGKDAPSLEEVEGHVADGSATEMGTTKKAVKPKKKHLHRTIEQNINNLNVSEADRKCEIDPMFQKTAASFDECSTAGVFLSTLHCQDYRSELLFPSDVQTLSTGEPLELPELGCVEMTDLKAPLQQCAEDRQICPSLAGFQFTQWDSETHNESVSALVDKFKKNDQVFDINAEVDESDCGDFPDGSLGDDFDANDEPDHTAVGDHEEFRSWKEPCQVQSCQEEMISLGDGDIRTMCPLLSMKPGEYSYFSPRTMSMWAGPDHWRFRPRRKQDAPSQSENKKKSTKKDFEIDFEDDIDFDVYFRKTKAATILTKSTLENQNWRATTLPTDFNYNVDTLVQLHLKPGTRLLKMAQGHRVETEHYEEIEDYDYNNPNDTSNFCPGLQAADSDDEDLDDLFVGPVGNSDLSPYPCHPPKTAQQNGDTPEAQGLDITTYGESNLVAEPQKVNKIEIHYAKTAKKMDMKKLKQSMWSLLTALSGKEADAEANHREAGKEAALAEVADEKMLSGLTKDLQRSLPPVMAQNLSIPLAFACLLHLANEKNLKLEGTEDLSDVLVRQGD
UniProt Q13546: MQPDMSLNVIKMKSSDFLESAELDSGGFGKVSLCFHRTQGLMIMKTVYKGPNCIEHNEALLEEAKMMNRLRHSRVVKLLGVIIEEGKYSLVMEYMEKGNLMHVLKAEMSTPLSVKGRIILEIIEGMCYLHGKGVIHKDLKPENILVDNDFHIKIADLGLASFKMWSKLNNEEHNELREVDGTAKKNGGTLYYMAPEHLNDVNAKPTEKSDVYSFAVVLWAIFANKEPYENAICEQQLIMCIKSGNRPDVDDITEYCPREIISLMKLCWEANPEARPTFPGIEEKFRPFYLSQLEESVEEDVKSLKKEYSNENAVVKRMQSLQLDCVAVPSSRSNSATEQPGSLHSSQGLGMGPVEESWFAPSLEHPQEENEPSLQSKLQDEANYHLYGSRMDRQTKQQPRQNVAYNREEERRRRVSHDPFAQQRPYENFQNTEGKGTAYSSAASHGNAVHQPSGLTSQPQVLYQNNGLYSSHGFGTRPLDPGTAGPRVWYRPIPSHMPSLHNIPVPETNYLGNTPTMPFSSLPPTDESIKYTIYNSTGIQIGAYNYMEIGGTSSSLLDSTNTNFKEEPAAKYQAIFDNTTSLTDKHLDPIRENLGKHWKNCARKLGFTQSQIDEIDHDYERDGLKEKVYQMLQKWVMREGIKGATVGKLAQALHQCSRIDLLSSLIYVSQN
UniProt Q14166: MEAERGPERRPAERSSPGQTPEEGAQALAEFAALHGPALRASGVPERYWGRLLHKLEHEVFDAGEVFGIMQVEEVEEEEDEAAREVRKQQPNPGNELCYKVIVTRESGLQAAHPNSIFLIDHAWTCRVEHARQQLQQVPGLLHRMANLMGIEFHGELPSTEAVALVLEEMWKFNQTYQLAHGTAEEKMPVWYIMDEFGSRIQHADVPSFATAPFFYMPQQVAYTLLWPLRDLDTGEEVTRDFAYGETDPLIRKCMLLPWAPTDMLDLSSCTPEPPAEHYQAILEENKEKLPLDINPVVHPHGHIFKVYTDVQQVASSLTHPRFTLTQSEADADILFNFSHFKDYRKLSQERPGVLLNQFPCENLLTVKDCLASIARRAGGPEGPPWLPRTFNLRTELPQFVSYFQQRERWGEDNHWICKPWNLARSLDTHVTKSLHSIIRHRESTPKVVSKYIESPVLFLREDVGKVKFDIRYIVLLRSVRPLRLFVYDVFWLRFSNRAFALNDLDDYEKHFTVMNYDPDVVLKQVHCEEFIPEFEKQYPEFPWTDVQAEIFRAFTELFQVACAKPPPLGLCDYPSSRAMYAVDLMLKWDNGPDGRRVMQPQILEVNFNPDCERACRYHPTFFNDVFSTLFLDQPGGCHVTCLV
UniProt Q14966: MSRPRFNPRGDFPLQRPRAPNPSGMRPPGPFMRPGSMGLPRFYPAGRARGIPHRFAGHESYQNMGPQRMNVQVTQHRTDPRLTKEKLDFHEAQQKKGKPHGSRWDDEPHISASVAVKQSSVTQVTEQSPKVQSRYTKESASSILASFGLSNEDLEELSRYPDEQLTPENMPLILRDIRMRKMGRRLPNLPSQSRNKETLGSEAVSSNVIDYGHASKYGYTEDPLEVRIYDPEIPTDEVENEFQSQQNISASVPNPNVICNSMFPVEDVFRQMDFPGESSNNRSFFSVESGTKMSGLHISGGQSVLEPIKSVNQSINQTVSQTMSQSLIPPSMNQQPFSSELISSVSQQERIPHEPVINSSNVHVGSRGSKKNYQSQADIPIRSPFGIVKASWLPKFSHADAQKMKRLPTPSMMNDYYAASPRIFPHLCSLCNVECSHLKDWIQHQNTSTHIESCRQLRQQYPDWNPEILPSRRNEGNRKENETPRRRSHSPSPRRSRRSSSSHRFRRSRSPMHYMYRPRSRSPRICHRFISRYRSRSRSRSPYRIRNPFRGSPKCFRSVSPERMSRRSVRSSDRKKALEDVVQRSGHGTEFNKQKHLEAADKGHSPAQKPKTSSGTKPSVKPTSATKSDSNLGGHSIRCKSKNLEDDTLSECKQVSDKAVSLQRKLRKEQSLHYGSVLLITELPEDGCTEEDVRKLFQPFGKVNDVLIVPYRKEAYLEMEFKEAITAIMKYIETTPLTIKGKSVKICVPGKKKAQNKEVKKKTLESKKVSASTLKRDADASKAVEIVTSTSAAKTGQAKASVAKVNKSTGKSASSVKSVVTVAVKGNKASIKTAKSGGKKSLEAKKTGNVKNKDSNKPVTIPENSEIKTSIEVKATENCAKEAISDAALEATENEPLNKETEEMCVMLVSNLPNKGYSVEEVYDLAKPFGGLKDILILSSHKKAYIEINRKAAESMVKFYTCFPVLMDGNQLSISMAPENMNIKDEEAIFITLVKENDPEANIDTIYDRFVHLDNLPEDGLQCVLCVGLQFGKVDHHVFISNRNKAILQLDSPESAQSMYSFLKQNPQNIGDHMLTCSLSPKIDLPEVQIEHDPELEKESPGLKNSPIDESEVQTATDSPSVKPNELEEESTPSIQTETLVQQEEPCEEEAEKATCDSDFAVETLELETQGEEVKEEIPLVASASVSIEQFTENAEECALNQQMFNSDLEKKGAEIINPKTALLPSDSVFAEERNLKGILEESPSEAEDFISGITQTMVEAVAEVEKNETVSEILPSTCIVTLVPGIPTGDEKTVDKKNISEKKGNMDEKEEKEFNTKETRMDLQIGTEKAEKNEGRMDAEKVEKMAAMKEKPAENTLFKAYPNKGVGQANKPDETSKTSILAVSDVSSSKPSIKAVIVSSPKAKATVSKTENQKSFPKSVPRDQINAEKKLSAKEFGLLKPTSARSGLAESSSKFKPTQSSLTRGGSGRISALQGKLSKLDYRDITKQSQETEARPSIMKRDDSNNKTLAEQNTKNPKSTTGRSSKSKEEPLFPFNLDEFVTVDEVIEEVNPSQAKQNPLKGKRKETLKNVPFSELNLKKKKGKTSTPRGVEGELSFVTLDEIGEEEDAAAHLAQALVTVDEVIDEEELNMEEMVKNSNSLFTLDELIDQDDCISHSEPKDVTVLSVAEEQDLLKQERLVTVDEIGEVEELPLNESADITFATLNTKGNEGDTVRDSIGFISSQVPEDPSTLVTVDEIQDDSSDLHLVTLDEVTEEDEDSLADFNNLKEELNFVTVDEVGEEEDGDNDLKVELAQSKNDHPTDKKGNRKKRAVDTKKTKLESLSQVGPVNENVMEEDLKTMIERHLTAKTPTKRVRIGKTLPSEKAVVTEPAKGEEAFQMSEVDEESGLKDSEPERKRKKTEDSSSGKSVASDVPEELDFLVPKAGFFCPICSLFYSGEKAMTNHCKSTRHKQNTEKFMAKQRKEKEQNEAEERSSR
UniProt Q13642: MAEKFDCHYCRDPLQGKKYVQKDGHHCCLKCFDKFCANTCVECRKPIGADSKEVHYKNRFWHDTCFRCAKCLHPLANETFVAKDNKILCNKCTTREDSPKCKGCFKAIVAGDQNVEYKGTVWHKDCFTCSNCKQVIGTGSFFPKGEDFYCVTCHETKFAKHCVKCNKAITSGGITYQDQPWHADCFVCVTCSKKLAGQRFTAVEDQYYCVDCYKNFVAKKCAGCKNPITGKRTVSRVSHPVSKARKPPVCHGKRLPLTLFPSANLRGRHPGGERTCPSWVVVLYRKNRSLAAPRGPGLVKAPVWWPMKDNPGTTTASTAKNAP

This is a selection; strong and weak results do not stand in their true shares.

Compound in the experiment: COC(=O)C#Cc1ccccc1 [methyl 3-phenylpropiolate]
As to the kind of experiment: log2 ratio of iodoacetamide-alkyne labeling of the cysteine site, DMSO over compound (competition); higher = stronger covalent engagement of the cysteine by the compound, active = 1 or more. Particulars: 500 µM; treatment time 1 h; system: HEK293T cell lysate. The method in brief: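 Electrophile (500 µM) or vehicle was added to HEK293T lysate (2 mg/mL) for 1 h at ambient temperature before iodoacetamide alkyne labelling (1 h) and click coupling to sCIP-TMT reagents. After pooling, overnight trypsin digestion at 37 °C, streptavidin enrichment and acid elution, peptides were measured by Orbitrap Eclipse LC-MS/MS with FAIMS and quantified in FragPipe. Each cysteine's log2 competition ratio compares mean control-channel with mean compound-channel reporter intensity, control over compound. Data came from duplicate channels across three replicates, excluding cysteines quantified in only one replicate.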
Turning to SLBP C15 (UniProt Q14493), the “log2 ratio of iodoacetamide-alkyne labeling” value (shortened to “log2 ratio”) was inactive: 0.507. On to DYNC1H1 C4510 (UniProt Q14204), for which the “log2 ratio” value was inactive: 0.182. Regarding EIF4EBP2 C35 (UniProt Q13542), the “log2 ratio” value is inactive: 0.489. Next, POLA2 C392 (UniProt Q14181): inactive: 0.0968; SART3 C472 (UniProt Q15020): inactive: 0.326. To NCAPD2 C772 (UniProt Q15021) belongs inactive: -0.0709; to DDX39B C300 (UniProt Q13838), inactive: -0.0333. To TRIM25 C70 (UniProt Q14258) belongs inactive: 0.188.

USP10 C209 (UniProt Q14694): the “log2 ratio” value is inactive: -0.157.

As for TRIP12 C332 (UniProt Q14669), the “log2 ratio” value was inactive: 0.439. Next, NCAPH C714 (UniProt Q15003): inactive: 0.0945. Next, RIPK1 C325 (UniProt Q13546): inactive: 0.409; TTLL12 C361 (UniProt Q14166): inactive: -0.307. Next, ZNF638 C652 (UniProt Q14966): inactive: 0.587. As for MORC3 C619 (UniProt Q14149), the “log2 ratio” value was inactive: 0.279. Next, ESPL1 C294 (UniProt Q14674): inactive: 0.577; CKAP5 C1203 (UniProt Q14008): inactive: 0.44.

On to KRR1 C102 (UniProt Q13601), for which the “log2 ratio” value was inactive: 0.172. On to NUMA1 C80 (UniProt Q14980), for which the “log2 ratio” value is inactive: 0.378. To MELK C339 (UniProt Q14680) belongs inactive: 0.749; to SNW1 C250 (UniProt Q13573), inactive: 0.496; to NUMA1 C1937 (UniProt Q14980), inactive: 0.741. In the case of TTLL12 C612 (UniProt Q14166), the “log2 ratio” value is inactive: 0.0779. To UniProt Q14141_C42 belongs inactive: -0.333. To FHL1 C209 (UniProt Q13642) belongs inactive: 0.0707; to MDC1 C1742 (UniProt Q14676), inactive: 0.0644. Next, UniProt Q13557_C373: inactive: -0.174. CAMK2G C7 (UniProt Q13555): the “log2 ratio” value is inactive: 0.45. To EIF3A C58 (UniProt Q14152) belongs inactive: 0.0702.

Consider PPP2R5D C17 (UniProt Q14738), for which the “log2 ratio” value was inactive: 0.818. To GOLGB1 C1257 (UniProt Q14789) belongs inactive: 0.301. Next, CAMK1 C179 (UniProt Q14012): inactive: 0.375; FHL1 C10 (UniProt Q13642): inactive: -0.136; FHL1 C36 (UniProt Q13642): inactive: 0.286. Next, FHL1 C7 (UniProt Q13642): inactive: -0.0623; SLBP C72 (UniProt Q14493): inactive: 0.692; TUBB3 C124 (UniProt Q13509): inactive: 0.685.
